# Measured values from the supplement of paper PMC8728848.
# The other results are listed elsewhere or left out.
# Assays:
# Assay in all cases: glycan array binding signal (z-score within array); higher = stronger binding
# Conditions in all cases: glycan notation: IUPAC condensed, linker removed
# Gal(b1-4)Glc6S = biological target: Gal(b1-4)Glc6S
# How it was run: (§1)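 Columns mapping to the same glycan were averaged after glycan names were converted to IUPAC-condensed notation. The data come from 3228 arrays in the Consortium for Functional Glycomics database, limited to those with an available protein sequence. Binding is reported as a within-array Z-score averaged across arrays of one protein sequence and across linkers.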
# Gal(b1-4)GlcNAc = biological target: Gal(b1-4)GlcNAc
# How it was run: as §1
# [1] = biological target: Gal(b1-4)GlcNAc(a1-6)Gal(b1-4)GlcNAc
# How it was run: as §1
# Gal(b1-4)GlcNAc(b1-2)Man = biological target: Gal(b1-4)GlcNAc(b1-2)Man
# How it was run: as §1
# [2] = biological target: Gal(b1-4)GlcNAc(b1-2)Man(a1-3)Man(b1-4)GlcNAc(b1-4)GlcNAc
# How it was run: as §1
# [3] = biological target: Gal(b1-4)GlcNAc(b1-2)Man(a1-3)[Gal(b1-4)GlcNAc(b1-2)Man(a1-6)]Man(b1-4)GlcNAc(b1-4)GlcNAc
# How it was run: as §1
# [4] = biological target: Gal(b1-4)GlcNAc(b1-2)Man(a1-3)[Gal(b1-4)GlcNAc(b1-2)Man(a1-6)]Man(b1-4)GlcNAc(b1-4)[Fuc(a1-6)]GlcNAc
# How it was run: as §1
# [5] = biological target: Gal(b1-4)GlcNAc(b1-2)Man(a1-3)[Gal(b1-4)GlcNAc(b1-2)][GlcNAc(b1-4)]Man(b1-4)GlcNAc(b1-4)GlcNAc
# How it was run: as §1
# [6] = biological target: Gal(b1-4)GlcNAc(b1-2)Man(a1-3)[GlcNAc(b1-2)Man(a1-6)]Man(b1-4)GlcNAc(b1-4)GlcNAc
# How it was run: as §1
# [7] = biological target: Gal(b1-4)GlcNAc(b1-2)Man(a1-3)[Man(a1-6)]Man(b1-4)GlcNAc(b1-4)GlcNAc
# How it was run: as §1
# [8] = biological target: Gal(b1-4)GlcNAc(b1-2)Man(a1-6)Man(b1-4)GlcNAc(b1-4)GlcNAc
# How it was run: as §1
# [9] = biological target: Gal(b1-4)GlcNAc(b1-2)Man(a1-6)[GlcNAc(b1-2)Man(a1-3)]Man(b1-4)GlcNAc(b1-4)GlcNAc
# How it was run: as §1
# [10] = biological target: Gal(b1-4)GlcNAc(b1-2)Man(a1-6)[Man(a1-3)]Man(b1-4)GlcNAc(b1-4)GlcNAc
# How it was run: as §1
# [11] = biological target: Gal(b1-4)GlcNAc(b1-2)[Gal(b1-4)GlcNAc(b1-4)]Man(a1-3)[Gal(b1-4)GlcNAc(b1-2)Man(a1-6)]Man(b1-4)GlcNAc(b1-4)GlcNAc
# How it was run: as §1
# [12] = biological target: Gal(b1-4)GlcNAc(b1-2)[Gal(b1-4)GlcNAc(b1-4)]Man(a1-3)[Gal(b1-4)GlcNAc(b1-2)[Gal(b1-4)GlcNAc(b1-6)]Man(a1-6)]Man(b1-4)GlcNAc(b1-4)GlcNAc
# How it was run: as §1
# [13] = biological target: Gal(b1-4)GlcNAc(b1-2)[Gal(b1-4)GlcNAc(b1-4)]Man(a1-3)[GlcNAc(b1-4)][Gal(b1-4)GlcNAc(b1-2)Man(a1-6)]Man(b1-4)GlcNAc(b1-4)GlcNAc
# How it was run: as §1
# [14] = biological target: Gal(b1-4)GlcNAc(b1-2)[Gal(b1-4)GlcNAc(b1-4)]Man(a1-3)[GlcNAc(b1-4)][Gal(b1-4)GlcNAc(b1-2)[Gal(b1-4)GlcNAc(b1-6)]Man(a1-6)]Man(b1-4)GlcNAc(b1-4)GlcNAc
# How it was run: as §1
# [15] = biological target: Gal(b1-4)GlcNAc(b1-2)[Gal(b1-4)GlcNAc(b1-4)]Man(a1-3)[GlcNAc(b1-4)][Gal(b1-4)GlcNAc(b1-2)[Gal(b1-4)GlcNAc(b1-6)]Man(a1-6)]Man(b1-4)GlcNAc(b1-4)[Fuc(a1-6)]GlcNAc
# How it was run: as §1
# [16] = biological target: Gal(b1-4)GlcNAc(b1-2)[Gal(b1-4)GlcNAc(b1-6)]Man(a1-6)[Gal(b1-4)GlcNAc(b1-2)Man(a1-3)]Man(b1-4)GlcNAc(b1-4)GlcNAc
# How it was run: as §1
# [17] = biological target: Gal(b1-4)GlcNAc(b1-2)[Gal(b1-4)GlcNAc(b1-6)]Man(a1-6)[Gal(b1-4)GlcNAc(b1-2)Man(a1-3)]Man(b1-4)GlcNAc(b1-4)[Fuc(a1-6)]GlcNAc
# How it was run: as §1
# [18] = biological target: Gal(b1-4)GlcNAc(b1-2)[Gal(b1-4)GlcNAc(b1-6)]Man(a1-6)[GlcNAc(b1-4)][Gal(b1-4)GlcNAc(b1-2)Man(a1-3)]Man(b1-4)GlcNAc(b1-4)GlcNAc
# How it was run: as §1
# [19] = biological target: Gal(b1-4)GlcNAc(b1-3)Gal(b1-3)GlcNAc
# How it was run: as §1
binder,measurement,setting,value
"Latrophilin-3 (Homo sapiens), Q9HAR2 (protein) MWPSQLLIFMMLLAPIIHAFSRAPIPMAVVRRELSCESYPIELRCPGTDVIMIESANYGRTDDKICDSDPAQMENIRCYLPDAYKIMSQRCNNRTQCAVVAGPDVFPDPCPGTYKYLEVQYECVPYKVEQKVFLCPGLLKGVYQSEHLFESDHQSGAWCKDPLQASDKIYYMPWTPYRTDTLTEYSSKDDFIAGRPTTTYKLPHRVDGTGFVVYDGALFFNKERTRNIVKFDLRTRIKSGEAIIANANYHDTSPYRWGGKSDIDLAVDENGLWVIYATEQNNGKIVISQLNPYTLRIEGTWDTAYDKRSASNAFMICGILYVVKSVYEDDDNEATGNKIDYIYNTDQSKDSLVDVPFPNSYQYIAAVDYNPRDNLLYVWNNYHVVKYSLDFGPLDSRSGQAHHGQVSYISPPIHLDSELERPSVKDISTTGPLGMGSTTTSTTLRTTTLSPGRSTTPSVSGRRNRSTSTPSPAVEVLDDMTTHLPSASSQIPALEESCEAVEAREIMWFKTRQGQIAKQPCPAGTIGVSTYLCLAPDGIWDPQGPDLSNCSSPWVNHITQKLKSGETAANIARELAEQTRNHLNAGDITYSVRAMDQLVGLLDVQLRNLTPGGKDSAARSLNKAMVETVNNLLQPQALNAWRDLTTSDQLRAATMLLHTVEESAFVLADNLLKTDIVRENTDNIKLEVARLSTEGNLEDLKFPENMGHGSTIQLSANTLKQNGRNGEIRVAFVLYNNLGPYLSTENASMKLGTEALSTNHSVIVNSPVITAAINKEFSNKVYLADPVVFTVKHIKQSEENFNPNCSFWSYSKRTMTGYWSTQGCRLLTTNKTHTTCSCNHLTNFAVLMAHVEVKHSDAVHDLLLDVITWVGILLSLVCLLICIFTFCFFRGLQSDRNTIHKNLCISLFVAELLFLIGINRTDQPIACAVFAALLHFFFLAAFTWMFLEGVQLYIMLVEVFESEHSRRKYFYLVGYGMPALIVAVSAAVDYRSYGTDKVCWLRLDTYFIWSFIGPATLIIMLNVIFLGIALYKMFHHTAILKPESGCLDNIKSWVIGAIALLCLLGLTWAFGLMYINESTVIMAYLFTIFNSLQGMFIFIFHCVLQKKVRKEYGKCLRTHCCSGKSTESSIGSGKTSGSRTPGRYSTGSQSRIRRMWNDTVRKQSESSFITGDINSSASLNREGLLNNARDTSVMDTLPLNGNHGNSYSIASGEYLSNCVQIIDRGYNHNETALEKKILKELTSNYIPSYLNNHERSSEQNRNLMNKLVNNLGSGREDDAIVLDDATSFNHEESLGLELIHEESDAPLLPPRVYSTENHQPHHYTRRRIPQDHSESFFPLLTNEHTEDLQSPHRDSLYTSMPTLAGVAATESVTTSTQTEPPPAKCGDAEDVYYKSMPNLGSRNHVHQLHTYYQLGRGSSDGFIVPPNKDGTPPEGSSKGPAHLVTSL",glycan array binding signal (z-score),Gal(b1-4)Glc6S,0.079
same,glycan array binding signal (z-score),Gal(b1-4)GlcNAc,-0.454
same,glycan array binding signal (z-score),[1],-0.137
same,glycan array binding signal (z-score),Gal(b1-4)GlcNAc(b1-2)Man,-1.06
same,glycan array binding signal (z-score),[2],-0.338
same,glycan array binding signal (z-score),[3],-0.559
same,glycan array binding signal (z-score),[4],-0.465
same,glycan array binding signal (z-score),[5],-0.341
same,glycan array binding signal (z-score),[6],0.359
same,glycan array binding signal (z-score),[7],2.01
same,glycan array binding signal (z-score),[8],3.58
same,glycan array binding signal (z-score),[9],-0.638
same,glycan array binding signal (z-score),[10],0.365
same,glycan array binding signal (z-score),[11],0.234
same,glycan array binding signal (z-score),[12],-1.6
same,glycan array binding signal (z-score),[13],1.15
same,glycan array binding signal (z-score),[14],-1.02
same,glycan array binding signal (z-score),[15],-0.338
same,glycan array binding signal (z-score),[16],0.342
same,glycan array binding signal (z-score),[17],-0.651
same,glycan array binding signal (z-score),[18],0.561
same,glycan array binding signal (z-score),[19],-1.51
